Results are given in words; binding and its absence hold for the method and conditions named. In cells and extracts the contact can be indirect. Tags and fused reporters may be left off the sequences shown.

Sequences of proteins named here, by UniProt entry; tags and fusion partners are left off.
UniProt P98170: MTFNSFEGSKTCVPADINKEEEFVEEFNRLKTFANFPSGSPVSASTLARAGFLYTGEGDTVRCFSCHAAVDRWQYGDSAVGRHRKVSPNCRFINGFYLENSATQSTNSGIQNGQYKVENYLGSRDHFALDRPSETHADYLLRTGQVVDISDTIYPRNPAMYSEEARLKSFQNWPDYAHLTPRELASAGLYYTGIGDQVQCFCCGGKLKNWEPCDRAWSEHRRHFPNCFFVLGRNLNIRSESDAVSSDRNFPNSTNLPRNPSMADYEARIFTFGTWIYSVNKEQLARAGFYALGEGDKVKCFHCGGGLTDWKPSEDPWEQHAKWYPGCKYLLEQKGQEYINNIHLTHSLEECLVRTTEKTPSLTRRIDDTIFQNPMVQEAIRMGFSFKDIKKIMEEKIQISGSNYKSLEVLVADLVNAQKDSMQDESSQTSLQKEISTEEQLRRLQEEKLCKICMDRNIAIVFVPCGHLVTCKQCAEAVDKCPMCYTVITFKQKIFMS

The test concerns the target GST-tagged human XIAP (human) (UniProt P98170). As to the kind of experiment: pull-down.

B1: GFP-fusion of VPS16 (protein, UniProt Q9H269 1-839)
chain: MDCYTANWNPLGDSAFYRKYELYSMDWDLKEELRDCLVAAAPYGGPIALLRNPWRKEKAASVRPVLDIYSASGMPLASLLWKSGPVVSLGWSAEEELLCVQEDGAVLVYGLHGDFRRHFSMGNEVLQNRVLDARIFHTEFGSGVAILTGAHRFTLSANVGDLKLRRMPEVPGLQSAPSCWTVLCQDRVAHILLAVGPDLYLLDHAACSAVTPPGLAPGVSSFLQMAVSFTYRHLALFTDTGYIWMGTASLKEKLCEFNCNIRAPPKQMVWCSRPRSKERAVVVAWERRLMVVGDAPESIQFVLDEDSYLVPELDGVRIFSRSTHEFLHEVPAASEEIFKIASMAPGALLLEAQKEYEKESQKADEYLREIQELGQLTQAVQQCIEAAGHEHQPDMQKSLLRAASFGKCFLDRFPPDSFVHMCQDLRVLNAVRDYHIGIPLTYSQYKQLTIQVLLDRLVLRRLYPLAIQICEYLRLPEVQGVSRILAHWACYKVQQKDVSDEDVARAINQKLGDTPGVSYSDIAARAYGCGRTELAIKLLEYEPRSGEQVPLLLKMKRSKLALSKAIESGDTDLVFTVLLHLKNELNRGDFFMTLRNQPMALSLYRQFCKHQELETLKDLYNQDDNHQELGSFHIRASYAAEERIEGRVAALQTAADAFYKAKNEFAAKATEDQMRLLRLQRRLEDELGGQFLDLSLHDTVTTLILGGHNKRAEQLARDFRIPDKRLWWLKLTALADLEDWEELEKFSKSKKSPIGYLPFVEICMKQHNKYEAKKYASRVGPEQKVKALLLVGDVAQAADVAIEHRNEAELSLVLSHCTGATDGATADKIQRARAQAQKK
On to B1, for which the binding result was “no binding”.

The record behind these values is doi:10.1101/291294.
